Values quoted from earlier work as cited in US20240082270A1 (priority 2021, published 2024).
For at least one compound, name, drawing or mass did not settle the structure.

Conditions: compared to controls

CCCC(=O)O [Butyrate]
reduction of serum triglycerides: ≤ 50%
